# Results: the supplement of paper PMC4604168 (melanoma cell lines)
# Some of the results follow. Many values rest on one well or one pass, so single values are uncertain.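 Imaging used 1,536-well plates; nuclei positive for cleaved PARP by antibody were divided by total DNA-stained nuclei to yield the apoptosis fraction. Doses for screening kept most cells viable, and cell lines differ markedly in resting and induced cleaved-PARP levels.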
# How the values were obtained:
# Assay in all cases: cleaved PARP positive nuclei fraction relative to DMSO control; melanoma cells; higher = more apoptosis
# Details in all cases: library dose: low library concentration; 72 h
# [1] = system: WM115
# [2] = system: WM1716
# [3] = system: WM1745
# [4] = system: WM3526
# [5] = system: WM3619
# [6] = system: WM451Lu
compound,measurement,setting,value
"COc1ccc(C2=N[C@@H](c3ccc(Cl)cc3)[C@@H](c3ccc(Cl)cc3)N2C(=O)N2CCNC(=O)C2)c(OC(C)C)c1 [Nutlin-3] + CCN(CC)CCNC(=O)c1c(C)[nH]c(/C=C2\C(=O)Nc3ccc(F)cc32)c1C [sunitinib] (first compound 0.1 µM, partner dose 0.4 µM)",cleaved PARP positive nuclei fraction,[1],194%
same,cleaved PARP positive nuclei fraction,[2],71.7%
same,cleaved PARP positive nuclei fraction,[3],110%
same,cleaved PARP positive nuclei fraction,[4],93.1%
same,cleaved PARP positive nuclei fraction,[5],93.3%
same,cleaved PARP positive nuclei fraction,[6],83%
"CC1(C)CCC(c2ccc(Cl)cc2)=C(CN2CCN(c3ccc(C(=O)NS(=O)(=O)c4ccc(N[C@H](CCN5CCOCC5)CSc5ccccc5)c(S(=O)(=O)C(F)(F)F)c4)cc3)CC2)C1 + O=c1cc(-c2cccc3c2Sc2ccccc2S3)oc(N2CCOCC2)c1 [KU55933] (first compound 0.4 µM, partner dose 1 µM)",cleaved PARP positive nuclei fraction,[1],163%
same,cleaved PARP positive nuclei fraction,[2],169%
same,cleaved PARP positive nuclei fraction,[3],454%
same,cleaved PARP positive nuclei fraction,[4],82%
same,cleaved PARP positive nuclei fraction,[5],118%
same,cleaved PARP positive nuclei fraction,[6],70.7%
"CCN(CC)CCNC(=O)c1c(C)[nH]c(/C=C2\C(=O)Nc3ccc(F)cc32)c1C [sunitinib] + O=C(O)c1ccc(-c2c[nH]c3ncc(-c4ccccc4)cc23)cc1C1CCCC1 [GSK650394] (first compound 0.4 µM, partner dose 0.16 µM)",cleaved PARP positive nuclei fraction,[1],31.3%
same,cleaved PARP positive nuclei fraction,[2],49.7%
same,cleaved PARP positive nuclei fraction,[3],139%
same,cleaved PARP positive nuclei fraction,[4],219%
same,cleaved PARP positive nuclei fraction,[5],99.8%
same,cleaved PARP positive nuclei fraction,[6],44.3%
"NC(=O)c1ccc(N(C(N)=O)c2c(F)cccc2F)nc1-c1ccc(F)cc1F + CCc1ccc(CCOc2ccc(CC3SC(=O)NC3=O)cc2)nc1 [pioglitazone] (first compound 0.4 µM, partner dose 2 µM)",cleaved PARP positive nuclei fraction,[1],134%
same,cleaved PARP positive nuclei fraction,[2],99%
same,cleaved PARP positive nuclei fraction,[3],84.9%
same,cleaved PARP positive nuclei fraction,[4],48.7%
same,cleaved PARP positive nuclei fraction,[5],120%
same,cleaved PARP positive nuclei fraction,[6],39.2%
"CN(c1ncccc1CNc1nc(Nc2ccc3c(c2)CC(=O)N3)ncc1C(F)(F)F)S(C)(=O)=O + O=C(Nc1cccc(Cl)c1)Nc1ncc(CCNc2ncnc3ccsc23)s1 [SNS314] (first compound 0.08 µM, partner dose 0.0008 µM)",cleaved PARP positive nuclei fraction,[1],99.9%
same,cleaved PARP positive nuclei fraction,[2],111%
same,cleaved PARP positive nuclei fraction,[3],112%
same,cleaved PARP positive nuclei fraction,[4],44.5%
same,cleaved PARP positive nuclei fraction,[5],179%
same,cleaved PARP positive nuclei fraction,[6],138%
"CCN(CC)CCNC(=O)c1c(C)[nH]c(/C=C2\C(=O)Nc3ccc(F)cc32)c1C [sunitinib] + CN(NC(=O)CC(=O)NN(C)C(=S)c1ccccc1)C(=S)c1ccccc1 [STA4783] (first compound 0.4 µM, partner dose 0.006 µM)",cleaved PARP positive nuclei fraction,[1],145%
same,cleaved PARP positive nuclei fraction,[2],84.6%
same,cleaved PARP positive nuclei fraction,[3],153%
same,cleaved PARP positive nuclei fraction,[4],129%
same,cleaved PARP positive nuclei fraction,[5],78.6%
same,cleaved PARP positive nuclei fraction,[6],59.5%
"CCCCCCCCc1ccc(CCC(N)(CO)CO)cc1 [fingolimod] + Cn1nnc2c(C(N)=O)ncn2c1=O [temozolomide] (first compound 2 µM, partner dose 2 µM)",cleaved PARP positive nuclei fraction,[1],179%
same,cleaved PARP positive nuclei fraction,[2],91.3%
same,cleaved PARP positive nuclei fraction,[3],134%
same,cleaved PARP positive nuclei fraction,[4],40.7%
same,cleaved PARP positive nuclei fraction,[5],90.7%
same,cleaved PARP positive nuclei fraction,[6],29%
"CCCCCCCCc1ccc(CCC(N)(CO)CO)cc1 [fingolimod] + CN(c1ncccc1CNc1nc(Nc2ccc3c(c2)CC(=O)N3)ncc1C(F)(F)F)S(C)(=O)=O [PF562271] (first compound 2 µM, partner dose 0.08 µM)",cleaved PARP positive nuclei fraction,[1],268%
same,cleaved PARP positive nuclei fraction,[2],23.8%
same,cleaved PARP positive nuclei fraction,[3],147%
same,cleaved PARP positive nuclei fraction,[4],87.5%
same,cleaved PARP positive nuclei fraction,[5],124%
same,cleaved PARP positive nuclei fraction,[6],103%
"COc1ccc(C2=N[C@@H](c3ccc(Cl)cc3)[C@@H](c3ccc(Cl)cc3)N2C(=O)N2CCNC(=O)C2)c(OC(C)C)c1 [Nutlin-3] + COc1ccc2c(c1)CCC1C2CCC2(C)C(NCCCCCCN3C(=O)C=CC3=O)CCC12 [U73122] (first compound 0.1 µM, partner dose 0.4 µM)",cleaved PARP positive nuclei fraction,[1],105%
same,cleaved PARP positive nuclei fraction,[2],388%
same,cleaved PARP positive nuclei fraction,[3],98.9%
same,cleaved PARP positive nuclei fraction,[4],85.1%
same,cleaved PARP positive nuclei fraction,[5],119%
same,cleaved PARP positive nuclei fraction,[6],107%
"NC1(c2ccc(-c3nc4ccn5c(=O)[nH]nc5c4cc3-c3ccccc3)cc2)CCC1 + Cn1c(Nc2ccc(C(F)(F)F)cc2)nc2cc(Oc3ccnc(-c4ncc(C(F)(F)F)[nH]4)c3)ccc21 [CHIR265] (first compound 0.4 µM, partner dose 0.08 µM)",cleaved PARP positive nuclei fraction,[1],1960%
same,cleaved PARP positive nuclei fraction,[2],316%
same,cleaved PARP positive nuclei fraction,[3],116%
same,cleaved PARP positive nuclei fraction,[4],264%
same,cleaved PARP positive nuclei fraction,[5],113%
same,cleaved PARP positive nuclei fraction,[6],49.1%
"CS(=O)(=O)c1ccc(C(=O)Nc2ccc(Cl)c(-c3ccccn3)c2)c(Cl)c1 [vismodegib] + CCCCCCCCc1ccc(CCC(N)(CO)CO)cc1 [fingolimod] (first compound 1 µM, partner dose 2 µM)",cleaved PARP positive nuclei fraction,[1],133%
same,cleaved PARP positive nuclei fraction,[2],77.7%
same,cleaved PARP positive nuclei fraction,[3],107%
same,cleaved PARP positive nuclei fraction,[4],38.7%
same,cleaved PARP positive nuclei fraction,[5],101%
same,cleaved PARP positive nuclei fraction,[6],44.8%
"CC(=O)O[C@@]12CO[C@@H]1C[C@H](O)[C@@]1(C)C(=O)[C@H](O)C3=C(C)[C@@H](OC(=O)[C@H](O)[C@@H](NC(=O)OC(C)(C)C)c4ccccc4)C[C@@](O)([C@@H](OC(=O)c4ccccc4)[C@H]21)C3(C)C [Docetaxel] + Cn1c(Nc2ccc(C(F)(F)F)cc2)nc2cc(Oc3ccnc(-c4ncc(C(F)(F)F)[nH]4)c3)ccc21 [CHIR265] (first compound 0.0001 µM, partner dose 0.08 µM)",cleaved PARP positive nuclei fraction,[1],2050%
same,cleaved PARP positive nuclei fraction,[2],16200%
same,cleaved PARP positive nuclei fraction,[3],236%
same,cleaved PARP positive nuclei fraction,[4],310%
same,cleaved PARP positive nuclei fraction,[5],156%
same,cleaved PARP positive nuclei fraction,[6],112%
"CC1(C)CCC(c2ccc(Cl)cc2)=C(CN2CCN(c3ccc(C(=O)NS(=O)(=O)c4ccc(N[C@H](CCN5CCOCC5)CSc5ccccc5)c(S(=O)(=O)C(F)(F)F)c4)cc3)CC2)C1 + Cc1ccc(NC(=O)c2cccc(N(C)C)c2)cc1NC(=O)c1ccc(O)cc1 [ZM336372] (first compound 0.4 µM, partner dose 2 µM)",cleaved PARP positive nuclei fraction,[1],291%
same,cleaved PARP positive nuclei fraction,[2],182%
same,cleaved PARP positive nuclei fraction,[3],1160%
same,cleaved PARP positive nuclei fraction,[4],65.1%
same,cleaved PARP positive nuclei fraction,[5],195%
same,cleaved PARP positive nuclei fraction,[6],43.4%
"C[C@@H](N)c1ccc(C(=O)Nc2ccnc3[nH]ccc23)cc1 + CN(c1ncccc1CNc1nc(Nc2ccc3c(c2)CC(=O)N3)ncc1C(F)(F)F)S(C)(=O)=O [PF562271] (first compound 0.4 µM, partner dose 0.08 µM)",cleaved PARP positive nuclei fraction,[1],66.1%
same,cleaved PARP positive nuclei fraction,[2],143%
same,cleaved PARP positive nuclei fraction,[3],172%
same,cleaved PARP positive nuclei fraction,[4],77.5%
same,cleaved PARP positive nuclei fraction,[5],93.2%
same,cleaved PARP positive nuclei fraction,[6],49.4%
"CCN(CC)CCNC(=O)c1c(C)[nH]c(/C=C2\C(=O)Nc3ccc(F)cc32)c1C [sunitinib] + COc1cc(Nc2ncc(F)c(Nc3ccc4c(n3)NC(=O)C(C)(C)O4)n2)cc(OC)c1OC [Tamatinib] (first compound 0.4 µM, partner dose 0.4 µM)",cleaved PARP positive nuclei fraction,[1],97.2%
same,cleaved PARP positive nuclei fraction,[2],104%
same,cleaved PARP positive nuclei fraction,[3],138%
same,cleaved PARP positive nuclei fraction,[4],135%
same,cleaved PARP positive nuclei fraction,[5],98.4%
same,cleaved PARP positive nuclei fraction,[6],48.5%
"C[C@]1(O)C[C@@H](c2nc(-c3ccc4ccc(-c5ccccc5)nc4c3)c3c(N)nccn32)C1 + Cc1ccc(NC(=O)c2cccc(N(C)C)c2)cc1NC(=O)c1ccc(O)cc1 [ZM336372] (first compound 0.4 µM, partner dose 2 µM)",cleaved PARP positive nuclei fraction,[1],76.8%
same,cleaved PARP positive nuclei fraction,[2],123%
same,cleaved PARP positive nuclei fraction,[3],122%
same,cleaved PARP positive nuclei fraction,[4],66.7%
same,cleaved PARP positive nuclei fraction,[5],105%
same,cleaved PARP positive nuclei fraction,[6],59.7%
"CC(=O)O[C@@]12CO[C@@H]1C[C@H](O)[C@@]1(C)C(=O)[C@H](O)C3=C(C)[C@@H](OC(=O)[C@H](O)[C@@H](NC(=O)OC(C)(C)C)c4ccccc4)C[C@@](O)([C@@H](OC(=O)c4ccccc4)[C@H]21)C3(C)C [Docetaxel] + CN(NC(=O)CC(=O)NN(C)C(=S)c1ccccc1)C(=S)c1ccccc1 [STA4783] (first compound 0.0001 µM, partner dose 0.006 µM)",cleaved PARP positive nuclei fraction,[1],572%
same,cleaved PARP positive nuclei fraction,[2],523%
same,cleaved PARP positive nuclei fraction,[3],224%
same,cleaved PARP positive nuclei fraction,[4],188%
same,cleaved PARP positive nuclei fraction,[5],177%
same,cleaved PARP positive nuclei fraction,[6],562%
"NC(=O)c1ccc(N(C(N)=O)c2c(F)cccc2F)nc1-c1ccc(F)cc1F + O=c1cc(-c2cccc3c2Sc2ccccc2S3)oc(N2CCOCC2)c1 [KU55933] (first compound 0.4 µM, partner dose 1 µM)",cleaved PARP positive nuclei fraction,[1],107%
same,cleaved PARP positive nuclei fraction,[2],23.6%
same,cleaved PARP positive nuclei fraction,[3],76.8%
same,cleaved PARP positive nuclei fraction,[4],94.9%
same,cleaved PARP positive nuclei fraction,[5],89.4%
same,cleaved PARP positive nuclei fraction,[6],105%
"CC(=O)O[C@@]12CO[C@@H]1C[C@H](O)[C@@]1(C)C(=O)[C@H](O)C3=C(C)[C@@H](OC(=O)[C@H](O)[C@@H](NC(=O)OC(C)(C)C)c4ccccc4)C[C@@](O)([C@@H](OC(=O)c4ccccc4)[C@H]21)C3(C)C [Docetaxel] + O=C(CCCCCCC(=O)Nc1ccccc1)NO [vorinostat] (first compound 0.0001 µM, partner dose 0.08 µM)",cleaved PARP positive nuclei fraction,[1],104%
same,cleaved PARP positive nuclei fraction,[2],694%
same,cleaved PARP positive nuclei fraction,[3],167%
same,cleaved PARP positive nuclei fraction,[4],126%
same,cleaved PARP positive nuclei fraction,[5],119%
same,cleaved PARP positive nuclei fraction,[6],236%
"COc1ccc(C2=N[C@@H](c3ccc(Cl)cc3)[C@@H](c3ccc(Cl)cc3)N2C(=O)N2CCNC(=O)C2)c(OC(C)C)c1 [Nutlin-3] + Cn1c(Nc2ccc(C(F)(F)F)cc2)nc2cc(Oc3ccnc(-c4ncc(C(F)(F)F)[nH]4)c3)ccc21 [CHIR265] (first compound 0.1 µM, partner dose 0.08 µM)",cleaved PARP positive nuclei fraction,[1],361%
same,cleaved PARP positive nuclei fraction,[2],82.8%
same,cleaved PARP positive nuclei fraction,[3],130%
same,cleaved PARP positive nuclei fraction,[4],57.1%
same,cleaved PARP positive nuclei fraction,[5],132%
same,cleaved PARP positive nuclei fraction,[6],32.1%
"CC1(C)CCC(c2ccc(Cl)cc2)=C(CN2CCN(c3ccc(C(=O)NS(=O)(=O)c4ccc(N[C@H](CCN5CCOCC5)CSc5ccccc5)c(S(=O)(=O)C(F)(F)F)c4)cc3)CC2)C1 + NC(=O)Nc1cc(-c2cccc(F)c2)sc1C(=O)N[C@H]1CCCNC1 [AZD7762] (first compound 0.4 µM, partner dose 0.02 µM)",cleaved PARP positive nuclei fraction,[1],440%
same,cleaved PARP positive nuclei fraction,[2],305%
same,cleaved PARP positive nuclei fraction,[3],541%
same,cleaved PARP positive nuclei fraction,[4],81.5%
same,cleaved PARP positive nuclei fraction,[5],380%
same,cleaved PARP positive nuclei fraction,[6],159%
"Cn1cnc2c(F)c(Nc3ccc(Br)cc3Cl)c(C(=O)NOCCO)cc21 [selumetinib] + Cc1cc([N+](=O)[O-])ccc1NS(=O)(=O)c1cc(Cl)ccc1Cl [FH535] (first compound 0.015 µM, partner dose 1 µM)",cleaved PARP positive nuclei fraction,[1],183%
same,cleaved PARP positive nuclei fraction,[2],64%
same,cleaved PARP positive nuclei fraction,[3],99.6%
same,cleaved PARP positive nuclei fraction,[4],94.2%
same,cleaved PARP positive nuclei fraction,[5],109%
same,cleaved PARP positive nuclei fraction,[6],122%
"C[C@@H](N)c1ccc(C(=O)Nc2ccnc3[nH]ccc23)cc1 + Cc1cc(N2CCOCC2)cc2[nH]c(-c3c(NC[C@@H](O)c4cccc(Cl)c4)cc[nH]c3=O)nc12 [BMS536924] (first compound 0.4 µM, partner dose 0.2 µM)",cleaved PARP positive nuclei fraction,[1],60.8%
same,cleaved PARP positive nuclei fraction,[2],151%
same,cleaved PARP positive nuclei fraction,[3],170%
same,cleaved PARP positive nuclei fraction,[4],105%
same,cleaved PARP positive nuclei fraction,[5],88.1%
same,cleaved PARP positive nuclei fraction,[6],44.2%
